The list shows a part of the results.
Tests used:
Assay in all cases: glycan array binding signal (z-score within array); higher = stronger binding
Conditions in all cases: glycan notation: IUPAC condensed, linker removed
[1] = biological target: Fuc(a1-2)Gal6S(b1-3)GlcNAc
Procedure, shortened: (§1)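 Glycan array data were curated from 3228 arrays in the Consortium for Functional Glycomics database and kept only where the protein sequence was available. Glycan names were converted to IUPAC-condensed notation, and columns mapping to the same glycan were averaged. The binding signal is a within-array Z-score, averaged across arrays of the same protein sequence at different concentrations or buffers and across linkers. Negative Z-scores can be read as non-binding.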

[2] = biological target: Fuc(a1-2)Gal6S(b1-3)GlcNAc6S
Procedure, shortened: as §1

Fuc(a1-2)Gal6S(b1-4)Glc = biological target: Fuc(a1-2)Gal6S(b1-4)Glc
Procedure, shortened: as §1

[3] = biological target: Fuc(a1-2)Gal6S(b1-4)Glc6S
Procedure, shortened: as §1

Fuc(a1-2)[Gal(a1-3)]Gal = biological target: Fuc(a1-2)[Gal(a1-3)]Gal
Procedure, shortened: as §1

[4] = biological target: Fuc(a1-2)[Gal(a1-3)]Gal(b1-3)GalNAc
Procedure, shortened: as §1

[5] = biological target: Fuc(a1-2)[Gal(a1-3)]Gal(b1-3)GalNAc(b1-3)Gal(a1-4)Gal(b1-4)Glc
Procedure, shortened: as §1

[6] = biological target: Fuc(a1-2)[Gal(a1-3)]Gal(b1-3)GlcNAc
Procedure, shortened: as §1

[7] = biological target: Fuc(a1-2)[Gal(a1-3)]Gal(b1-3)GlcNAc(b1-2)Man(a1-3)[Fuc(a1-2)[Gal(a1-3)]Gal(b1-3)GlcNAc(b1-2)Man(a1-6)]Man(b1-4)GlcNAc(b1-4)GlcNAc
Procedure, shortened: as §1

[8] = biological target: Fuc(a1-2)[Gal(a1-3)]Gal(b1-3)GlcNAc(b1-2)Man(a1-3)[Fuc(a1-2)[Gal(a1-3)]Gal(b1-3)GlcNAc(b1-2)Man(a1-6)]Man(b1-4)GlcNAc(b1-4)[Fuc(a1-6)]GlcNAc
Procedure, shortened: as §1

[9] = biological target: Fuc(a1-2)[Gal(a1-3)]Gal(b1-3)GlcNAc(b1-3)GalNAc
Procedure, shortened: as §1

[10] = biological target: Fuc(a1-2)[Gal(a1-3)]Gal(b1-3)GlcNAc(b1-6)GalNAc
Procedure, shortened: as §1

[11] = biological target: Fuc(a1-2)[Gal(a1-3)]Gal(b1-4)Glc
Procedure, shortened: as §1

[12] = biological target: Fuc(a1-2)[Gal(a1-3)]Gal(b1-4)GlcNAc
Procedure, shortened: as §1

[13] = biological target: Fuc(a1-2)[Gal(a1-3)]Gal(b1-4)GlcNAc(b1-2)Man
Procedure, shortened: as §1

[14] = biological target: Fuc(a1-2)[Gal(a1-3)]Gal(b1-4)GlcNAc(b1-2)Man(a1-3)[Fuc(a1-2)[Gal(a1-3)]Gal(b1-4)GlcNAc(b1-2)Man(a1-6)]Man(b1-4)GlcNAc(b1-4)GlcNAc
Procedure, shortened: as §1

[15] = biological target: Fuc(a1-2)[Gal(a1-3)]Gal(b1-4)GlcNAc(b1-2)Man(a1-3)[Fuc(a1-2)[Gal(a1-3)]Gal(b1-4)GlcNAc(b1-2)Man(a1-6)]Man(b1-4)GlcNAc(b1-4)[Fuc(a1-6)]GlcNAc
Procedure, shortened: as §1

[16] = biological target: Fuc(a1-2)[Gal(a1-3)]Gal(b1-4)GlcNAc(b1-3)GalNAc
Procedure, shortened: as §1

[17] = biological target: Fuc(a1-2)[Gal(a1-3)]Gal(b1-4)GlcNAc(b1-3)[Fuc(a1-2)[Gal(a1-3)]Gal(b1-4)GlcNAc(b1-6)]GalNAc
Procedure, shortened: as §1

[18] = biological target: Fuc(a1-2)[Gal(a1-3)]Gal(b1-4)GlcNAc(b1-6)GalNAc
Procedure, shortened: as §1

[19] = biological target: Fuc(a1-2)[Gal(a1-3)]Gal(b1-4)[Fuc(a1-3)]Glc
Procedure, shortened: as §1

[20] = biological target: Fuc(a1-2)[Gal(a1-3)]Gal(b1-4)[Fuc(a1-3)]GlcNAc
Procedure, shortened: as §1

[21] = biological target: Fuc(a1-2)[Gal(a1-3)]Gal(b1-4)[Fuc(a1-3)]GlcNAc(b1-3)GalNAc
Procedure, shortened: as §1

[22] = biological target: Fuc(a1-2)[Gal(a1-4)]Gal(b1-4)GlcNAc
Procedure, shortened: as §1

[23] = biological target: Fuc(a1-2)[GalNAc(a1-3)]Gal
Procedure, shortened: as §1

[24] = biological target: Fuc(a1-2)[GalNAc(a1-3)]Gal(b1-3)GalNAc(a1-3)[Fuc(a1-2)]Gal(b1-4)GlcNAc
Procedure, shortened: as §1

[25] = biological target: Fuc(a1-2)[GalNAc(a1-3)]Gal(b1-3)GalNAc(b1-3)Gal(a1-4)Gal(b1-4)Glc
Procedure, shortened: as §1

[26] = biological target: Fuc(a1-2)[GalNAc(a1-3)]Gal(b1-3)GlcNAc
Procedure, shortened: as §1

[27] = biological target: Fuc(a1-2)[GalNAc(a1-3)]Gal(b1-3)GlcNAc(b1-2)Man(a1-3)[Fuc(a1-2)[GalNAc(a1-3)]Gal(b1-3)GlcNAc(b1-2)Man(a1-6)]Man(b1-4)GlcNAc(b1-4)GlcNAc
Procedure, shortened: as §1

[28] = biological target: Fuc(a1-2)[GalNAc(a1-3)]Gal(b1-3)GlcNAc(b1-2)Man(a1-3)[Fuc(a1-2)[GalNAc(a1-3)]Gal(b1-3)GlcNAc(b1-2)Man(a1-6)]Man(b1-4)GlcNAc(b1-4)[Fuc(a1-6)]GlcNAc
Procedure, shortened: as §1

[29] = biological target: Fuc(a1-2)[GalNAc(a1-3)]Gal(b1-3)GlcNAc(b1-3)GalNAc
Procedure, shortened: as §1

[30] = biological target: Fuc(a1-2)[GalNAc(a1-3)]Gal(b1-3)GlcNAc(b1-6)GalNAc
Procedure, shortened: as §1

[31] = biological target: Fuc(a1-2)[GalNAc(a1-3)]Gal(b1-4)Glc
Procedure, shortened: as §1

[32] = biological target: Fuc(a1-2)[GalNAc(a1-3)]Gal(b1-4)GlcNAc
Procedure, shortened: as §1

[33] = biological target: Fuc(a1-2)[GalNAc(a1-3)]Gal(b1-4)GlcNAc(b1-2)Man
Procedure, shortened: as §1

[34] = biological target: Fuc(a1-2)[GalNAc(a1-3)]Gal(b1-4)GlcNAc(b1-2)Man(a1-3)[Fuc(a1-2)[GalNAc(a1-3)]Gal(b1-4)GlcNAc(b1-2)Man(a1-6)]Man(b1-4)GlcNAc(b1-4)GlcNAc
Procedure, shortened: as §1

[35] = biological target: Fuc(a1-2)[GalNAc(a1-3)]Gal(b1-4)GlcNAc(b1-2)Man(a1-3)[Fuc(a1-2)[GalNAc(a1-3)]Gal(b1-4)GlcNAc(b1-2)Man(a1-6)]Man(b1-4)GlcNAc(b1-4)[Fuc(a1-6)]GlcNAc
Procedure, shortened: as §1

[36] = biological target: Fuc(a1-2)[GalNAc(a1-3)]Gal(b1-4)GlcNAc(b1-3)Gal(b1-4)GlcNAc
Procedure, shortened: as §1

[37] = biological target: Fuc(a1-2)[GalNAc(a1-3)]Gal(b1-4)GlcNAc(b1-3)Gal(b1-4)GlcNAc(b1-3)Gal(b1-4)GlcNAc
Procedure, shortened: as §1

[38] = biological target: Fuc(a1-2)[GalNAc(a1-3)]Gal(b1-4)GlcNAc(b1-3)GalNAc
Procedure, shortened: as §1

[39] = biological target: Fuc(a1-2)[GalNAc(a1-3)]Gal(b1-4)GlcNAc(b1-3)[Fuc(a1-2)[GalNAc(a1-3)]Gal(b1-4)GlcNAc(b1-6)]GalNAc
Procedure, shortened: as §1

[40] = biological target: Fuc(a1-2)[GalNAc(a1-3)]Gal(b1-4)GlcNAc(b1-6)GalNAc
Procedure, shortened: as §1

[41] = biological target: Fuc(a1-2)[GalNAc(a1-3)]Gal(b1-4)[Fuc(a1-3)]GlcNAc
Procedure, shortened: as §1

[42] = biological target: Fuc(a1-2)[GalNAc(a1-3)]Gal(b1-4)[Fuc(a1-3)]GlcNAc(b1-3)GalNAc
Procedure, shortened: as §1

[43] = biological target: Fuc(a1-2)[GalNAc(a1-4)]Gal(b1-4)GlcNAc
Procedure, shortened: as §1

B1: AT5G17240(42) (Arabidopsis thaliana), Q6NQJ8 (protein)
chain: MDLEHQTMETFLRWAAEIGISDSIDSSRFRDSCLGHSLSVSDFPDAGGRGLGAARELKKGELVLKVPRKALMTTESIIAKDLKLSDAVNLHNSLSSTQILSVCLLYEMSKEKKSFWYPYLFHIPRDYDLLATFGNFEKQALQVEDAVWATEKATAKCQSEWKEAGSLMKELELKPKFRSFQAWLWASATISSRTLHVPWDSAGCLCPVGDLFNYDAPGDYSNTPQGPESANNVEEAGLVVETHSERLTDGGFEEDVNAYCLYARRNYQLGEQVLLCYGTYTNLELLEHYGFMLEENSNDKVFIPLETSLFSLASSWPKDSLYIHQDGKLSFALISTLRLWLIPQSQRDKSVMRLVYAGSQISVKNEILVMKWMSEKCGSVLRDLPTSVTEDTVLLHNIDKLQDPELRLEQKETEAFGSEVRAFLDANCLWDVTVLSGKPIEFSRKTSRMLSKWRWSVQWRLSYKRTLADCISYCNEKMNNLLGTQDRLRDL
- glycan array binding signal (z-score) [1]: -0.076
- glycan array binding signal (z-score) [2]: 0.061
- glycan array binding signal (z-score) (Fuc(a1-2)Gal6S(b1-4)Glc): -0.806
- glycan array binding signal (z-score) [3]: -0.53
- glycan array binding signal (z-score) (Fuc(a1-2)[Gal(a1-3)]Gal): 1.1
- glycan array binding signal (z-score) [4]: -0.578
- glycan array binding signal (z-score) [5]: -0.757
- glycan array binding signal (z-score) [6]: -0.384
- glycan array binding signal (z-score) [7]: 0.176
- glycan array binding signal (z-score) [8]: 0.397
- glycan array binding signal (z-score) [9]: -0.932
- glycan array binding signal (z-score) [10]: -0.727
- glycan array binding signal (z-score) [11]: 0.516
- glycan array binding signal (z-score) [12]: 0.32
- glycan array binding signal (z-score) [13]: -0.779
- glycan array binding signal (z-score) [14]: 0.142
- glycan array binding signal (z-score) [15]: -0.331
- glycan array binding signal (z-score) [16]: -0.626
- glycan array binding signal (z-score) [17]: -0.324
- glycan array binding signal (z-score) [18]: -0.375
- glycan array binding signal (z-score) [19]: 0.583
- glycan array binding signal (z-score) [20]: 0.5
- glycan array binding signal (z-score) [21]: -0.253
- glycan array binding signal (z-score) [22]: 0.208
- glycan array binding signal (z-score) [23]: -0.222
- glycan array binding signal (z-score) [24]: -0.276
- glycan array binding signal (z-score) [25]: -0.358
- glycan array binding signal (z-score) [26]: -0.505
- glycan array binding signal (z-score) [27]: -0.714
- glycan array binding signal (z-score) [28]: -0.488
- glycan array binding signal (z-score) [29]: -0.641
- glycan array binding signal (z-score) [30]: -0.54
- glycan array binding signal (z-score) [31]: -0.719
- glycan array binding signal (z-score) [32]: -0.514
- glycan array binding signal (z-score) [33]: -0.32
- glycan array binding signal (z-score) [34]: 0.114
- glycan array binding signal (z-score) [35]: -1.09
- glycan array binding signal (z-score) [36]: 0.002
- glycan array binding signal (z-score) [37]: 0.02
- glycan array binding signal (z-score) [38]: -0.332
- glycan array binding signal (z-score) [39]: 0.084
- glycan array binding signal (z-score) [40]: -0.213
- glycan array binding signal (z-score) [41]: 0.482
- glycan array binding signal (z-score) [42]: 6.64
- glycan array binding signal (z-score) [43]: -0.684

From the supplement of paper PMC8728848
